Data as given in PubChem BioAssay AID504808 (Drosophila RNAi Screening Center, 2011)

- Screen: 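Chromatin factors that keep E2F targets switched off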 (primary screen)
- System: Drosophila S2 cells
- Reagents: long dsRNA against Drosophila genes
- Measurement: 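Dual luciferase plate measurements; E2F-specific signal taken as firefly over Renilla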
- Scale: E2F firefly: higher = more E2F reporter activity; Renilla normaliser: higher = more normaliser reporter signal
- Active means: 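Called active if the normalised E2F reporter went up by over 50%; the cutoff is arbitrary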
The deposit covers about 21,000 reagents; shown is a random part of those with a known target gene and a result. Over the whole deposit, 18 (0.084%) were called active. 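Raw counts without plate normalisation, one of two replicates; the ratio scores behind the calls were not deposited.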 Entries without a mark were called inactive. A plus sign joins genes that one reagent is predicted to hit. Not stated in the record: the amount of reagent, the time to read-out.

Boot (GeneID 35919) [DRSC06412]
- E2F firefly, rep 1: 1.47e5
- Renilla normaliser, rep 1: 5484

PIG-Wb (GeneID 38220) [DRSC08526]
- E2F firefly, rep 1: 88827
- Renilla normaliser, rep 1: 4072

Su(var)2-10 (GeneID 35927) [DRSC07721]
- E2F firefly, rep 1: 3602
- Renilla normaliser, rep 1: 208

MFS3 (GeneID 33292) [DRSC00664]
- E2F firefly, rep 1: 1.41e5
- Renilla normaliser, rep 1: 5286

mRpS23 (GeneID 318977) [DRSC01348]
- E2F firefly, rep 1: 1.32e5
- Renilla normaliser, rep 1: 6074

CG32986 (GeneID 34208) [DRSC02509]
- E2F firefly, rep 1: 1.47e5
- Renilla normaliser, rep 1: 4971

kud (GeneID 39882) [DRSC11086]
- E2F firefly, rep 1: 1.62e5
- Renilla normaliser, rep 1: 8319

CG5033 (GeneID 37036) [DRSC07410]
- E2F firefly, rep 1: 70929
- Renilla normaliser, rep 1: 3748

CCT4 (GeneID 34674) [DRSC02865]
- E2F firefly, rep 1: 1.02e5
- Renilla normaliser, rep 1: 4894

Alp5 (GeneID 42482) [DRSC14269]
- E2F firefly, rep 1: 62458
- Renilla normaliser, rep 1: 3361

HPS4 (GeneID 37009) [DRSC06906]
- E2F firefly, rep 1: 1.56e5
- Renilla normaliser, rep 1: 5121

CG5973 (GeneID 34023) [DRSC02918]
- E2F firefly, rep 1: 85876
- Renilla normaliser, rep 1: 3878

CG34045 (GeneID 3885656) [DRSC05787]
- E2F firefly, rep 1: 1.46e5
- Renilla normaliser, rep 1: 4605

Osi16 (GeneID 318801) [DRSC12135]
- E2F firefly, rep 1: 1.22e5
- Renilla normaliser, rep 1: 5839

CG13113 (GeneID 34271) [DRSC02211]
- E2F firefly, rep 1: 1.70e5
- Renilla normaliser, rep 1: 6081

CG4953 (GeneID 34373) [DRSC02792]
- E2F firefly, rep 1: 76416
- Renilla normaliser, rep 1: 4162

CG6479 (GeneID 39930) [DRSC10647]
- E2F firefly, rep 1: 63609
- Renilla normaliser, rep 1: 3208

ms(3)76Ba (GeneID 40109) [DRSC10091]
- E2F firefly, rep 1: 1.51e5
- Renilla normaliser, rep 1: 6468

CG4907 (GeneID 42686) [DRSC15673]
- E2F firefly, rep 1: 1.08e5
- Renilla normaliser, rep 1: 5365

CG7781 (GeneID 34143) [DRSC03068]
- E2F firefly, rep 1: 1.42e5
- Renilla normaliser, rep 1: 4944

Nph (GeneID 43559) [DRSC16342]
- E2F firefly, rep 1: 1.25e5
- Renilla normaliser, rep 1: 6784

Cnx99A + Cnx14D [DRSC16610]
- E2F firefly, rep 1: 1.48e5
- Renilla normaliser, rep 1: 6221

Hers + amn [DRSC20306]
- E2F firefly, rep 1: 1.37e5
- Renilla normaliser, rep 1: 5267

CG5282 (GeneID 40256) [DRSC11775]
- E2F firefly, rep 1: 72381
- Renilla normaliser, rep 1: 3741

CG7246 (GeneID 31833) [DRSC18422]
- E2F firefly, rep 1: 48624
- Renilla normaliser, rep 1: 3644

CG14304 (GeneID 42232) [DRSC14783]
- E2F firefly, rep 1: 1.03e5
- Renilla normaliser, rep 1: 5574

Taf10b (GeneID 33468) [DRSC00792]
- E2F firefly, rep 1: 1.45e5
- Renilla normaliser, rep 1: 5847

Prosbeta2 (GeneID 39628) [DRSC11257]
- E2F firefly, rep 1: 51413
- Renilla normaliser, rep 1: 4020

gogo (GeneID 40225) [DRSC10070]
- E2F firefly, rep 1: 99371
- Renilla normaliser, rep 1: 6564

gogo (GeneID 40225) [DRSC10071]
- E2F firefly, rep 1: 1.36e5
- Renilla normaliser, rep 1: 5330

CG8671 (GeneID 35400) [DRSC03102]
- E2F firefly, rep 1: 1.00e5
- Renilla normaliser, rep 1: 3943

CG8671 (GeneID 35400) [DRSC03103]
- E2F firefly, rep 1: 96070
- Renilla normaliser, rep 1: 4305

CG42565 (GeneID 37598) [DRSC04154]
- E2F firefly, rep 1: 1.04e5
- Renilla normaliser, rep 1: 4254

CG3123 (GeneID 33478) [DRSC00570]
- E2F firefly, rep 1: 1.77e5
- Renilla normaliser, rep 1: 5881

dmGlut (GeneID 47253) [DRSC02835]
- E2F firefly, rep 1: 80695
- Renilla normaliser, rep 1: 3845

CG31253 + CG31131 [DRSC13839]
- E2F firefly, rep 1: 99246
- Renilla normaliser, rep 1: 2918

Records listed so far whose gene name starts with H or h (2):
HPS4 (GeneID 37009) [DRSC06906]
- E2F firefly, rep 1: 1.56e5
- Renilla normaliser, rep 1: 5121

Hers + amn [DRSC20306]
- E2F firefly, rep 1: 1.37e5
- Renilla normaliser, rep 1: 5267
